PubChem BioAssay AID720505 – Drosophila RNAi Screening Center | 2013
The screen tested about 20,000 reagents; this is a random part of those with a known target gene and a result. In the full data, about 2,100 (10%) were called active. 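Raw plate signals without normalisation; calls rest on control-based scores that were not deposited; replicate 2 separates called from uncalled poorly.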 Names joined by + are all predicted targets of the reagent. The record does not give: the amount of reagent, the time to read-out.

Purpose: 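Fly regulators or components of the CRAC channel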 (primary screen)
Cell system: Drosophila S2R+ cells
Knock-down reagent: long dsRNA against Drosophila genes
Treatment: thapsigargin (2 µM) in calcium-free buffer to empty internal stores, then 2 mM calcium added back
Detection: 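Fluo-4 signal in 384-well plates read on a FLIPR after thapsigargin (2 µM, calcium-free) store depletion and 2 mM calcium add-back; unnormalised mean endpoint per well; screen run twice, selected wells retested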
Reading the numbers: calcium signal and retest calcium signal: higher = more calcium entry after store depletion
Hit rule: 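Knock-downs counted as hits when calcium entry dropped relative to STIM1 positive and Rho1 negative controls present on each plate; roughly 1500 genes called, with reductions of differing size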
Calls: active = called as lowering calcium entry; inactive = not called

no.	gene	dsRNA	calcium signal, replicate 1	calcium signal, replicate 2	retest calcium signal, replicate 1	retest calcium signal, replicate 2	Outcome
1	Tm1	DRSC13083	7354	147			inactive
2	Tm1	DRSC16886	80	107			inactive
3	CG13064	DRSC09947	113	115			inactive
4	CG12951	DRSC14579	56.9	81.7			active
5	PIG-Wb	DRSC08526	95	85.5			inactive
6	CG4577	DRSC00658	189	143			inactive
7	CG4757	DRSC14130	67.9	76.3			active
8	Snr1	DRSC12369	80	145			inactive
9	elgi	DRSC10242	156	82.3			inactive
10	CG8204	DRSC07106	88.6	168			inactive
11	CG42808	DRSC06370	145	139			inactive
12	Ekar	DRSC17161	134	195			inactive
13	CG4218	DRSC01939	132	98.5			inactive
14	CG15649	DRSC04240	174	86			inactive
15	CG11409	DRSC18579	116	133			inactive
16	CREG	DRSC16595	134	195			inactive
17	form3	DRSC10195	99.5	81.8			inactive
18	form3	DRSC10297	139	77.2			inactive
19	form3	DRSC11024	109	84.9			inactive
20	mst	DRSC20582	92.6	117			inactive
21	Uck	DRSC16028	178	138			inactive
22	Sur	DRSC03447	124	148			inactive
23	CHMP2B	DRSC10436	93.1	99.8			inactive
24	CG32281	DRSC08236	100	148			inactive
25	CG16904	DRSC15161	104	144			inactive
26	eEF2	DRSC03737	100	121			inactive
27	CG6083	DRSC10580	87.9	75			inactive
28	CheA75a	DRSC10807	104	98.7			inactive

The list goes on (6 carried over from the part before).
no.	gene	dsRNA	calcium signal, replicate 1	calcium signal, replicate 2	retest calcium signal, replicate 1	retest calcium signal, replicate 2	Outcome
23	CHMP2B	DRSC10436	93.1	99.8			inactive
24	CG32281	DRSC08236	100	148			inactive
25	CG16904	DRSC15161	104	144			inactive
26	eEF2	DRSC03737	100	121			inactive
27	CG6083	DRSC10580	87.9	75			inactive
28	CheA75a	DRSC10807	104	98.7			inactive
29	loh	DRSC01122	71.2	215			active
30	loh	DRSC02943	196	167			inactive
31	Nckx30C	DRSC02686	197	168			inactive
32	Nckx30C	DRSC02687	168	171			inactive
33	Nckx30C	DRSC02688	202	156			inactive
34	Nckx30C	DRSC02689	143	109			inactive
35	CG32052	DRSC10966	98.3	90.7			inactive
36	CG5800	DRSC19962	89.9	78.3			inactive
37	CG13005	DRSC19524	97.5	118			inactive
38	scpr-A + scpr-C	DRSC15737	153	83.3			inactive
39	CG32631	DRSC19768	131	96.2			inactive
40	Kr-h2	DRSC03356	155	91.3			inactive
41	Obp83a	DRSC12362	119	147			inactive
42	Nach	DRSC07478	178	138			inactive
43	GCC88	DRSC14264	99.5	87.9			inactive
44	bru1	DRSC01234	72.6	108			active
45	bru1	DRSC01236	268	130			inactive
46	bru1	DRSC01237	204	105			inactive
47	bru1	DRSC01238	155	92.4			inactive
48	bru1	DRSC03485	64	109			active
49	Cyp6d2	DRSC04606	60.6	7376	142	149	active
50	asun	DRSC16733	135	216			inactive
51	CG11666	DRSC22379	55.1	191			active
52	IntS3	DRSC21215	118	88.2			inactive
53	Qsox4	DRSC14224	216	244			inactive
54	CG10802	DRSC17762	79.7	120			inactive
55	su(f)	DRSC20907	176	80.5			inactive
56	CG32071	DRSC22298	106	231			inactive
